Reference: patent publication US4311689A, “Method and container for production of diagnostic scanning” (priority 1978, dated 1982)

Test: Labelling efficiency / extent of complex formation with technetium-99m by thin layer chromatography on silica gel

**Q.** With `O=C(O)CN(CCN(CC(=O)O)CC(=O)O)CC(=O)O` as the compound, how does the “technetium activity present as a complex” value (tin foil, unadjusted pH 4.0, 15 minutes) read?
**A.** The value was “all the technetium activity was present as a complex”.

**Q.** With `O=C(O)C1=CC(=C(c2ccc(O)c(C(=O)O)c2)c2ccc(O)c(C(=O)O)c2)C=CC1=O` [aluminon] as the compound, how does the “pertechnetate reduced to give a complex of technetium” value (tin foil, pH 5, 15 minutes) read?
**A.** Its value is “Essentially all”.

**Q.** Which yield of complex (tin foil degreased but not activated, pH 4.7, 15 minutes, variable) does the source give for `O=C(O)C(=O)O` [oxalic acid] here?
**A.** The yield of complex was “around 40%”.
